Assay results taken from the supplement of paper PMC10849652.
Some of the results follow.

The chains behind the UniProt entries cited, without tags or fusion partners. Where a name states a change or a piece, a line headed by the entry shows the natural chain unless it says otherwise.
UniProt Q99523, whole entry, looked up: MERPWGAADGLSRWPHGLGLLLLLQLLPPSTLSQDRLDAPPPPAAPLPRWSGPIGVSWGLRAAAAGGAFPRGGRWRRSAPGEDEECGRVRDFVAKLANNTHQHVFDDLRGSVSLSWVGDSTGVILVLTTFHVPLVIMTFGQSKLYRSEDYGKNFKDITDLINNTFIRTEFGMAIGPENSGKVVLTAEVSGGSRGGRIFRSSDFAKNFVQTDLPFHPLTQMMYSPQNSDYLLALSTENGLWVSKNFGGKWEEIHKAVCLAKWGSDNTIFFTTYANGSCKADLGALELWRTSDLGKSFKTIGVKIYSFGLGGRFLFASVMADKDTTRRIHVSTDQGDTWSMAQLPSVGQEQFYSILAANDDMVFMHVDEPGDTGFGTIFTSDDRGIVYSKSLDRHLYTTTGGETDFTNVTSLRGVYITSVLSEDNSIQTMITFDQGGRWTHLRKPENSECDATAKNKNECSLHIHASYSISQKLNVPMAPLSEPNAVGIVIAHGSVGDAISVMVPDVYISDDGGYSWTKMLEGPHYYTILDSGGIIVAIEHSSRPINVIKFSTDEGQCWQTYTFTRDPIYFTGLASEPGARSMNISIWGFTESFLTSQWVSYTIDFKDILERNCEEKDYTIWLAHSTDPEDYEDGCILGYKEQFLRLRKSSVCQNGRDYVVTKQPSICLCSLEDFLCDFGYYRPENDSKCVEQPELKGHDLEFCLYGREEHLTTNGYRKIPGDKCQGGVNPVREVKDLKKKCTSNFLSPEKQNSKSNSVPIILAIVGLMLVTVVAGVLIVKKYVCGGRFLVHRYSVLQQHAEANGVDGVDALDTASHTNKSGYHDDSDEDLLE
UniProt P62304, whole entry, looked up: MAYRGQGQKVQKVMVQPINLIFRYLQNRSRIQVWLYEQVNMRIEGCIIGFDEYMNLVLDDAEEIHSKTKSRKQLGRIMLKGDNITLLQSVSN
UniProt Q96BD0: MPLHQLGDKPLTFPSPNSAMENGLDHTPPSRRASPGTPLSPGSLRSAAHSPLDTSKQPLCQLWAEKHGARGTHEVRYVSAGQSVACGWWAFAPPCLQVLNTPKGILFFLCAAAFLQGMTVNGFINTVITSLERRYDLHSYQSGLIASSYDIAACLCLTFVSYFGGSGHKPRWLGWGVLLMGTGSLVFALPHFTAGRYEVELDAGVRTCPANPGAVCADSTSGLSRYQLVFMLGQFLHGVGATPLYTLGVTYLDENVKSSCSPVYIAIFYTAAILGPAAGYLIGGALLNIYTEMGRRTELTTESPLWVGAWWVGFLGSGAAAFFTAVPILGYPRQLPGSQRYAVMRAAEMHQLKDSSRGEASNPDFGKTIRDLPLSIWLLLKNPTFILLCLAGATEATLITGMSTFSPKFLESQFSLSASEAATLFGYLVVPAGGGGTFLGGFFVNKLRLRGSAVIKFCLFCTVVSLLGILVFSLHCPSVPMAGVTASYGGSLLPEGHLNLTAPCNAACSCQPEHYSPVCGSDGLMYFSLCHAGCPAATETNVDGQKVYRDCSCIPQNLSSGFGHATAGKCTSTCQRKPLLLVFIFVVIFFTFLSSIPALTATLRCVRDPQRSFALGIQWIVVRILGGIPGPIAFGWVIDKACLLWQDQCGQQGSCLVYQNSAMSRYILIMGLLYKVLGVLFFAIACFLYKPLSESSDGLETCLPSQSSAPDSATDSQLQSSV
UniProt Q15036: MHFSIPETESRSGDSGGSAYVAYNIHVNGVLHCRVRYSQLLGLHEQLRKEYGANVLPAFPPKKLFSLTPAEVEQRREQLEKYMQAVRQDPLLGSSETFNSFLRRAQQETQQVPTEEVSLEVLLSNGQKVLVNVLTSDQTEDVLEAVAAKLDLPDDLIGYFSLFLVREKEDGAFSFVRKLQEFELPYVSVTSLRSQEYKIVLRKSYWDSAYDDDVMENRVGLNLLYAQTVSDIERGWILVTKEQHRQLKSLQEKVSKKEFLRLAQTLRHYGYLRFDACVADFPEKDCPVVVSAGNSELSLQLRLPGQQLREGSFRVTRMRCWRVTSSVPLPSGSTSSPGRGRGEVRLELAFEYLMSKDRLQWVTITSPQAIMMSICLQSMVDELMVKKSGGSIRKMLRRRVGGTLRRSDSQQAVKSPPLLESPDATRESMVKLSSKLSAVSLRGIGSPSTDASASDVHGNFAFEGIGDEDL
UniProt P09661: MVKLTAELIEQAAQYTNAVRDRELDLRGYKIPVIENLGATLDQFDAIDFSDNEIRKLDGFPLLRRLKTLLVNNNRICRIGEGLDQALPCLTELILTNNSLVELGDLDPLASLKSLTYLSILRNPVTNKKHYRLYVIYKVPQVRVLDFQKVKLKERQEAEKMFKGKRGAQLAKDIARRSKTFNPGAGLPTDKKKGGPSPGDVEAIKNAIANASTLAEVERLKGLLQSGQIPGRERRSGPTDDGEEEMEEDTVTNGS
UniProt O14745: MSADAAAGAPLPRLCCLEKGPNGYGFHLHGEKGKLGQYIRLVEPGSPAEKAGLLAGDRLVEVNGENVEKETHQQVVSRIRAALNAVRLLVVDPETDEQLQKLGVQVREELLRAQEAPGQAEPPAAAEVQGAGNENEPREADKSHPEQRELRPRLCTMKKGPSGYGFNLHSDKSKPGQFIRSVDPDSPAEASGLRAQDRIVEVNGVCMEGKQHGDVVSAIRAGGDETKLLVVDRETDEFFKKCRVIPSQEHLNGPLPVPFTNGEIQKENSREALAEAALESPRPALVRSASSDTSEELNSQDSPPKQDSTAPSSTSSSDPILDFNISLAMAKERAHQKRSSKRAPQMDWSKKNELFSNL
UniProt Q16637, whole entry, looked up: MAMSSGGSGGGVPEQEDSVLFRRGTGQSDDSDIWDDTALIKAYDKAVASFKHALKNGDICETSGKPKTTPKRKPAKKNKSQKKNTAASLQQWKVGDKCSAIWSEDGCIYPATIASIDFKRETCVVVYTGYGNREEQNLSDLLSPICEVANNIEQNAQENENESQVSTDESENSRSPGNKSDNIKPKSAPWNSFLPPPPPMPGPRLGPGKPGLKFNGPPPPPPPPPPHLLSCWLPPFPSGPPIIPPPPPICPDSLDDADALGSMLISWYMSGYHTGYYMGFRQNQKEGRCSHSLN
UniProt Q13596, whole entry, looked up: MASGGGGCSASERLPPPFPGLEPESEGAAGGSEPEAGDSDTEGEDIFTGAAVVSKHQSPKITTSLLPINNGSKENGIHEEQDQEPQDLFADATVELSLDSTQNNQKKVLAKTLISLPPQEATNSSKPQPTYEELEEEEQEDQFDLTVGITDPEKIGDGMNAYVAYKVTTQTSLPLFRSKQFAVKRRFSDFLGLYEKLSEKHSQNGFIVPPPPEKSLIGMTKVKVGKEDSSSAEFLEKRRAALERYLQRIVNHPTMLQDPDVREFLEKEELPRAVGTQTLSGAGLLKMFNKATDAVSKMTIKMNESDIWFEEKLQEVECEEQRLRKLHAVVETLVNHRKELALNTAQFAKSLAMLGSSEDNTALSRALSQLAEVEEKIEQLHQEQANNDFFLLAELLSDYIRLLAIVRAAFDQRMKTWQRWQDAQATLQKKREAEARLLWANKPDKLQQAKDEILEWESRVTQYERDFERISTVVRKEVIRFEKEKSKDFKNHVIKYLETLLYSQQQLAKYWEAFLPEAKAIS
UniProt O95721: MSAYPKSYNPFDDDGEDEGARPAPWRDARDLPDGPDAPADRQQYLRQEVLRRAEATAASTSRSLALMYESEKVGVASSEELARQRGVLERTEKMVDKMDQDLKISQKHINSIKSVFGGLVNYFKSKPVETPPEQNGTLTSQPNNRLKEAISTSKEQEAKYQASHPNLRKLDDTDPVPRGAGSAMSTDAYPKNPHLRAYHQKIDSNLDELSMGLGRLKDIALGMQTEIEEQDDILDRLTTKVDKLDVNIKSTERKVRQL
UniProt O95347, whole entry, looked up: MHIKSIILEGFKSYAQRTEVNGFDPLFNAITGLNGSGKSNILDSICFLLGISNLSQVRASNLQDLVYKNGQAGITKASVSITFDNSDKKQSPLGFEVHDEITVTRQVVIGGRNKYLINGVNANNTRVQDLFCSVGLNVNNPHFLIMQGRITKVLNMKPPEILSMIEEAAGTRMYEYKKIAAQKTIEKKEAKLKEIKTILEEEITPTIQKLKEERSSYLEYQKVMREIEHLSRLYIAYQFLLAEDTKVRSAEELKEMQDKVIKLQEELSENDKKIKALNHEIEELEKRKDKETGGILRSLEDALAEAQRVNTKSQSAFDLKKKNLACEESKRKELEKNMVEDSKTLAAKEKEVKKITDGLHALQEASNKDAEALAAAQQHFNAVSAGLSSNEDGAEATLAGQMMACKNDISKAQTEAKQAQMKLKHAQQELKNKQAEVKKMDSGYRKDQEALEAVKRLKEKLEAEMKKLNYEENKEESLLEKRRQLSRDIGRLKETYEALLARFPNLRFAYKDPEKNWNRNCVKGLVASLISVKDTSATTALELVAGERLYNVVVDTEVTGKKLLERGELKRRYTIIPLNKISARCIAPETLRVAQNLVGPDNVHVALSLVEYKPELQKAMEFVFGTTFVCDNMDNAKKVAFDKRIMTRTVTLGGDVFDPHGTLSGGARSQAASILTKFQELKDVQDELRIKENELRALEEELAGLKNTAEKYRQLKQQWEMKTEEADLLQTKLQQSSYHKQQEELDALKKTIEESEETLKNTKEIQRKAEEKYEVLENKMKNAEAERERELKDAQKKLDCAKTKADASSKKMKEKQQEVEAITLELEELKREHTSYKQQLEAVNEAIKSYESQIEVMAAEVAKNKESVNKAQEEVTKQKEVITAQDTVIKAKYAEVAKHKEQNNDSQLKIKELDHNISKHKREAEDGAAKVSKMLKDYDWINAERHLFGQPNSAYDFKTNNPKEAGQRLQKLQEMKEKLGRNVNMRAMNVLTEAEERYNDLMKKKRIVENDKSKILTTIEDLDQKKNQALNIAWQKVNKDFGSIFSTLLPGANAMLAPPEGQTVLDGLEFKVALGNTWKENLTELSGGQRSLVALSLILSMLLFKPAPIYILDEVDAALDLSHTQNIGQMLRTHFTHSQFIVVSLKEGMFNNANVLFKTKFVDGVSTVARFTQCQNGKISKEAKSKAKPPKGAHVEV
UniProt Q9UQE7: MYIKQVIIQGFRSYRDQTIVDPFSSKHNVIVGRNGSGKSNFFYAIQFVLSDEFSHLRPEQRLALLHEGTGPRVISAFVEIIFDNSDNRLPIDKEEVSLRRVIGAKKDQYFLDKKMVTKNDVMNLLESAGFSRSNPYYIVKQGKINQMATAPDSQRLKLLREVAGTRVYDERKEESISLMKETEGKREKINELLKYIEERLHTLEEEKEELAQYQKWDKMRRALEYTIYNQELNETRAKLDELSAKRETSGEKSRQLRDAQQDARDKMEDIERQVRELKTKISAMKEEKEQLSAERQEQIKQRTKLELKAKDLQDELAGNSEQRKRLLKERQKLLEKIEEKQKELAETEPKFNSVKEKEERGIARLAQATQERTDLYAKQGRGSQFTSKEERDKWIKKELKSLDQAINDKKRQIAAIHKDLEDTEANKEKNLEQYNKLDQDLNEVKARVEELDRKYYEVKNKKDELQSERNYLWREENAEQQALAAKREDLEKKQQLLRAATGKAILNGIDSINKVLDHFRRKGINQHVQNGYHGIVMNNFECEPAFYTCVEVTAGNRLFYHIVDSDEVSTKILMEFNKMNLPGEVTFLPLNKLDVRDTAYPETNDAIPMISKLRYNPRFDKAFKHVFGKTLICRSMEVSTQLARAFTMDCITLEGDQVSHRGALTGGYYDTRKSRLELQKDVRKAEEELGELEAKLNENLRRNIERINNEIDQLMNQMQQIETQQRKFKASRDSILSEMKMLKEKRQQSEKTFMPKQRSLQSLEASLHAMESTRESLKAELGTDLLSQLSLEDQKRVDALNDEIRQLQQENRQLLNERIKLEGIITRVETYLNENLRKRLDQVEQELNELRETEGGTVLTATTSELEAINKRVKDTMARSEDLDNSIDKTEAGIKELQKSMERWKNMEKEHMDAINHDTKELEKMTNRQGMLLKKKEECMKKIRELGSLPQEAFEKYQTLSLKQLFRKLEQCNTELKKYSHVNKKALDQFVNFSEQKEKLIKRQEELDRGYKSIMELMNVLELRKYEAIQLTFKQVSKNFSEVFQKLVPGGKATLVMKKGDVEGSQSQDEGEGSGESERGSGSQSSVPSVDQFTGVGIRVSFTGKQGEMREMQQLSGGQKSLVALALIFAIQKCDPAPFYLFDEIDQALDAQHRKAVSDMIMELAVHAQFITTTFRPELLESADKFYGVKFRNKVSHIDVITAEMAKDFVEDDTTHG
UniProt Q9Y5W9: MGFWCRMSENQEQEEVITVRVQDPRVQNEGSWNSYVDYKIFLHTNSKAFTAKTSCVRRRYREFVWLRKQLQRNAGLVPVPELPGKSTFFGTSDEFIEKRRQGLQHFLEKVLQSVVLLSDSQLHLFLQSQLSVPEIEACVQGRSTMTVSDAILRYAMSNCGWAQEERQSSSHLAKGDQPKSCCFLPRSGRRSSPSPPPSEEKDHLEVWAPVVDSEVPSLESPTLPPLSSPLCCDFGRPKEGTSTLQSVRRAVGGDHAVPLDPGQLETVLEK

Assays:
Assay in all cases: log2 fold change, soluble protein after heating vs DMSO (PISA); higher = thermal stabilisation; K562 cells, 10 uM, 30 min; active = over 0.2 and 3.5 SD of the protein, either way, in both replicates (recomputed)
[1] = compound: CC1=C(C=C(C=C1)NC(=O)C2=CC(=CC=C2)C(C)(C)C#N)NC3=CC4=C(C=C3)N=CN(C4=O)C
Procedure, shortened: (§1)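 K562 cells at 2×10^6 cells/mL were given 10 μM compound for 30 min. Aliquots then went through 3 min of heating across 48°C-58°C, were pooled, and were extracted in PBS with 0.5% NP-40 at 4°C, and the supernatant after 21,000xg for 90 min was quantified by TMTpro 16plex LC-MS/MS with channel sums equalised. Thermal stability relative to control samples, from duplicates, is given as log2 fold change.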

[2] = compound: CC1=C(C=C(C=C1)NC(=O)C2=CC(=CC=C2)N(C)C)NC(=O)C3=CC=C(C=C3)O
Procedure, shortened: as §1

[3] = compound: CC1=CC=C(C=C1)SC2=C3C=C(SC3=CN=C2)C(=O)N
Procedure, shortened: as §1

[4] = compound: CC1=NC(=CC=C1)C2=C(N=C(N2)C(C)(C)C)C3=CC4=NC=CN=C4C=C3
Procedure, shortened: as §1

Nexturastat A = compound: CCCCN(Cc1ccc(C(=O)NO)cc1)C(=O)Nc1ccccc1 [Nexturastat A]
Procedure, shortened: as §1

vemurafenib = compound: CCCS(=O)(=O)Nc1ccc(F)c(C(=O)c2c[nH]c3ncc(-c4ccc(Cl)cc4)cc23)c1F [vemurafenib]
Procedure, shortened: as §1

[5] = compound: CCCS(=O)(=O)Nc1ccc(F)c(C(=O)c2c[nH]c3ncc(Cl)cc23)c1F
Procedure, shortened: as §1

[6] = compound: CCCc1cc(C)[nH]c(=O)c1CNC(=O)c1cc(-c2ccnc(N3CCN(C)CC3)c2)cc2c1cnn2C(C)C
Procedure, shortened: as §1

givinostat = compound: CCN(CC)Cc1ccc2cc(COC(=O)Nc3ccc(C(=O)NO)cc3)ccc2c1 [givinostat]
Procedure, shortened: as §1

barasertib = compound: CCN(CCCOc1ccc2c(Nc3cc(CC(=O)Nc4cccc(F)c4)[nH]n3)ncnc2c1)CCOP(=O)(O)O [barasertib]
Procedure, shortened: as §1

Measured: log2 fold change

SMYD5 (UniProt Q6GMV2)
inactive: [1] 0.004 | [2] 0.041 | [3] 0 | [4] 0.069 | Nexturastat A -0.152 | vemurafenib -0.022 | [5] 0.03 | [6] 0.019 | givinostat -0.069 | barasertib 0.013

SNU13, A0A3B3IUA2
inactive: [1] -0.052 | [2] 0.063 | [3] -0.041 | [4] -0.033 | Nexturastat A -0.015 | vemurafenib -0.112 | [5] -0.11 | [6] -0.032 | givinostat 0.046 | barasertib 0.035

SORT1 (UniProt Q99523)
inactive: [1] -0.042 | [2] 0.013 | [3] -0.006 | [4] -0.012 | Nexturastat A -0.038 | vemurafenib -0.003 | [5] -0.008 | [6] -0.072 | givinostat -0.003 | barasertib 0.015

SNRPE (UniProt P62304)
inactive: [1] -0.016 | [2] 0.003 | [3] -0.052 | [4] -0.018 | Nexturastat A -0.036 | vemurafenib -0.042 | [5] -0.035 | [6] -0.052 | givinostat -0.032 | barasertib -0.027

SP3 (UniProt Q02447)
inactive: [1] -0.008 | [2] -0.126 | [3] -0.041 | [4] -0.058 | Nexturastat A -0.003 | vemurafenib -0.038 | [5] 0.012 | [6] -0.052 | givinostat -0.219 | barasertib 0.011

SLCO4A1 (UniProt Q96BD0)
inactive: [1] 0.012 | [2] 0.088 | [3] -0.021 | [4] -0.323 | Nexturastat A -0.003 | vemurafenib -0.363 | [5] -0.016 | [6] 0.05 | givinostat 0.005 | barasertib 0.009

SMARCA4 (UniProt P51532)
inactive: [1] 0.039 | [2] -0.111 | [3] -0.296 | [4] -0.028 | Nexturastat A 0.351 | vemurafenib -0.261 | [5] -0.556 | [6] -0.084 | givinostat 0.159 | barasertib 0.137

SNF8 (UniProt Q96H20)
inactive: [1] 0.017 | [2] -0.034 | [3] -0.031 | [4] 0.075 | Nexturastat A -0.031 | vemurafenib 0.001 | [5] -0.03 | [6] -0.029 | givinostat 0.004 | barasertib 0.026

SNRPD1 (UniProt P62314)
inactive: [1] -0.051 | [2] 0.016 | [3] -0.071 | [4] -0.051 | Nexturastat A 0.035 | vemurafenib -0.066 | [5] -0.043 | [6] -0.073 | givinostat 0.039 | barasertib -0.072

SNX17 (UniProt Q15036)
inactive: [1] -0.043 | [2] 0.036 | [3] 0.095 | [4] -0.058 | Nexturastat A 0.102 | vemurafenib 0.053 | [5] 0.003 | givinostat 0.246 | barasertib 0.111

SLIRP (UniProt Q9GZT3)
inactive: [1] 0.175 | [2] 0.008 | [3] -0.035 | [4] 0.039 | Nexturastat A 0.286 | vemurafenib 0.028 | [5] -0.031 | [6] 0.214 | givinostat 0.113 | barasertib 0.019

SNX3 (UniProt O60493)
inactive: [1] -0.013 | [2] -0.064 | [3] 0.073 | [4] -0.004 | Nexturastat A 0.037 | vemurafenib 0.046 | [5] 0.122 | [6] 0.02 | givinostat 0.09 | barasertib 0.045

SMIM26, A0A096LP01
inactive: [1] 0.012 | [2] 0.053 | [3] 0.023 | [4] 0.011 | Nexturastat A -0.117 | vemurafenib -0.125 | [5] 0.006 | [6] 0.002 | givinostat -0.003 | barasertib 0

SNTA1 (UniProt Q13424)
inactive: [1] -0.097 | [2] 0.037 | [3] -0.102 | [4] 0.018 | Nexturastat A -0.033 | vemurafenib 0.056 | [5] 0.214 | [6] -0.13 | barasertib -0.305

SPAG5 (UniProt Q96R06)
inactive: [1] 0.127 | [2] -0.048 | [3] -0.016 | [4] -0.078 | Nexturastat A 0.179 | vemurafenib 0.129 | [5] 0.111 | [6] 0.167 | givinostat 0.125 | barasertib 0.048

SNRPA1 (UniProt P09661)
inactive: [1] 0.071 | [2] -0.002 | [3] -0.006 | [4] 0.004 | Nexturastat A -0.018 | vemurafenib -0.001 | [5] -0.024 | [6] -0.004 | givinostat -0.044 | barasertib -0.048

7 successive entries already listed, for reference:
SNF8 (UniProt Q96H20)
inactive: [1] 0.017 | [2] -0.034 | [3] -0.031 | [4] 0.075 | Nexturastat A -0.031 | vemurafenib 0.001 | [5] -0.03 | [6] -0.029 | givinostat 0.004 | barasertib 0.026

SNRPD1 (UniProt P62314)
inactive: [1] -0.051 | [2] 0.016 | [3] -0.071 | [4] -0.051 | Nexturastat A 0.035 | vemurafenib -0.066 | [5] -0.043 | [6] -0.073 | givinostat 0.039 | barasertib -0.072

SNX17 (UniProt Q15036)
inactive: [1] -0.043 | [2] 0.036 | [3] 0.095 | [4] -0.058 | Nexturastat A 0.102 | vemurafenib 0.053 | [5] 0.003 | givinostat 0.246 | barasertib 0.111

SLIRP (UniProt Q9GZT3)
inactive: [1] 0.175 | [2] 0.008 | [3] -0.035 | [4] 0.039 | Nexturastat A 0.286 | vemurafenib 0.028 | [5] -0.031 | [6] 0.214 | givinostat 0.113 | barasertib 0.019

SNX3 (UniProt O60493)
inactive: [1] -0.013 | [2] -0.064 | [3] 0.073 | [4] -0.004 | Nexturastat A 0.037 | vemurafenib 0.046 | [5] 0.122 | [6] 0.02 | givinostat 0.09 | barasertib 0.045

SMIM26, A0A096LP01
inactive: [1] 0.012 | [2] 0.053 | [3] 0.023 | [4] 0.011 | Nexturastat A -0.117 | vemurafenib -0.125 | [5] 0.006 | [6] 0.002 | givinostat -0.003 | barasertib 0

SNTA1 (UniProt Q13424)
inactive: [1] -0.097 | [2] 0.037 | [3] -0.102 | [4] 0.018 | Nexturastat A -0.033 | vemurafenib 0.056 | [5] 0.214 | [6] -0.13 | barasertib -0.305

The list goes on.

SLC9A3R1 (UniProt O14745)
inactive: [1] -0.03 | [2] 0.004 | [3] -0.004 | [4] 0.005 | Nexturastat A -0.01 | vemurafenib 0.003 | [5] 0.01 | [6] -0.012 | givinostat 0.011 | barasertib -0.003

SMN1 (UniProt Q16637)
inactive: [1] -0.129 | [2] 0.046 | [3] 0.014 | [4] 0.043 | Nexturastat A 0.192 | vemurafenib 0.022 | [5] 0.102 | [6] -0.071 | givinostat 0.085 | barasertib -0.095

SNX1 (UniProt Q13596)
inactive: [1] -0.014 | [2] -0.001 | [3] -0.001 | [4] 0.042 | Nexturastat A -0.025 | vemurafenib 0.002 | [5] 0.083 | [6] -0.014 | givinostat 0.054 | barasertib 0.037

SNAP29 (UniProt O95721)
inactive: [1] 0.032 | [2] 0.017 | [3] 0.023 | [4] 0.038 | Nexturastat A -0.082 | vemurafenib -0.027 | [5] -0.021 | [6] -0.006 | givinostat -0.008 | barasertib 0.009

SNX8 (UniProt Q9Y5X2)
inactive: [1] 0.008 | [2] 0.007 | [3] 0.026 | [4] 0.011 | Nexturastat A 0 | vemurafenib 0.006 | [5] -0.008 | [6] -0.016 | givinostat 0.004 | barasertib -0.028

SMARCA1 (UniProt P28370)
inactive: [1] 0.013 | [2] 0.018 | [3] 0 | [4] -0.046 | Nexturastat A 0.089 | vemurafenib 0.134 | [5] 0.046 | [6] -0.062 | givinostat 0.172 | barasertib 0.028

SMC2 (UniProt O95347)
inactive: [1] -0.007 | [2] -0.042 | [3] -0.018 | [4] 0.003 | Nexturastat A 0.029 | vemurafenib 0.05 | [5] 0.055 | [6] 0.04 | givinostat 0.018 | barasertib 0.018

SMC3 (UniProt Q9UQE7)
inactive: [1] -0.008 | [2] 0.007 | [3] -0.015 | [4] 0.009 | Nexturastat A -0.036 | vemurafenib 0.008 | [5] -0.006 | [6] -0.031 | givinostat 0.066 | barasertib 0.004

SMU1 (UniProt Q2TAY7)
inactive: [1] 0.007 | [2] 0.001 | [3] -0.006 | [4] 0.07 | Nexturastat A -0.054 | vemurafenib 0.012 | [5] 0.065 | [6] 0.011 | givinostat 0 | barasertib -0.013

SNX11 (UniProt Q9Y5W9)
inactive: [1] -0.008 | [2] 0.012 | [3] -0.003 | [4] 0.043 | Nexturastat A 0.014 | vemurafenib 0.043 | [5] 0.025 | [6] 0.022 | givinostat -0.006 | barasertib 0.019

SP1 (UniProt P08047)
inactive: [1] 0.023 | [2] -0.068 | [3] -0.067 | [4] -0.033 | Nexturastat A 0.034 | vemurafenib -0.017 | [5] -0.069 | [6] -0.018 | givinostat -0.114 | barasertib 0.011

SOD1 (UniProt P00441)
inactive: [1] -0.006 | [2] -0.028 | [3] 0.079 | [4] -0.134 | Nexturastat A -0.043 | vemurafenib 0.111 | [5] -0.004 | [6] -0.001 | givinostat -0.117 | barasertib 0.006
